At least one structure is not confirmed: it was looked up by name or label, or the drawing left a doubt.
Assay: Plasma pharmacokinetic analysis in Sprague Dawley rats
Details: bolus intravenous injection
Experimental: To begin, double jugular vein-cannulated Sprague Dawley rats were dosed with bolus intravenous injections of miniproteins (0.03-0.3 mg/kg) and FITC-sinistrin. Nine blood collection timepoints were taken from 0-2 h, processed to plasma with K2 EDTA, and were frozen for subsequent bioanalysis. Plasma miniprotein concentrations were measured by LC-MS/MS. To control for inter-animal renal clearance differences, and to compare with glomerular filtration rate (GFR), the miniprotein was co-formulated with a molecular marker of GFR, FITC-sinistrin (FS) (Pill et al., 2005). Plasma FITC-sinistrin was measured fluorometrically. All unknown sample measurements were interpolated against known authentic standards spiked into normal rat plasma to calculate concentration. Finally, non-compartmental analysis was performed to estimate plasma pharmacokinetic parameters.

Compound	Plasma terminal half-life
CC[C@H](C)[C@@H]1NC(=O)[C@H](CC(=O)O)NC(=O)CNC(=O)CNC(=O)[C@H](CCCNC(=N)N)NC(=O)[C@H](CC(C)C)NC(=O)[C@H](CCCNC(=N)N)NC(=O)[C@H](CCCCN)NC(=O)[C@H](CC(C)C)NC(=O)[C@H](C)NC(=O)[C@H]([C@@H](C)O)NC(=O)[C@H](Cc2ccccc2)NC(=O)[C@H](Cc2ccccc2)NC(=O)[C@H](CCC(=O)O)NC(=O)[C@H](CCC(=O)O)NC(=O)[C@H](CC(=O)O)NC(=O)[C@H](Cc2ccc(O)cc2)NC(=O)[C@H](CCC(=O)O)NC(=O)[C@@H](NC(=O)CCOCCOCCOCCOCCNC(=O)CN2CCN(CC(=O)O)CCN(CC(=O)O)CCN(CC(=O)O)CC2)CSSC[C@@H]2NC(=O)[C@H](CC(C)C)NC(=O)[C@H](CCCCNC(C)=O)NC(=O)[C@@H]3CCCN3C(=O)[C@H](C(C)C)NC(=O)[C@H](CCCCNC(C)=O)NC(=O)[C@H](CCCCNC(C)=O)NC(=O)[C@H](Cc3ccccc3)NC(=O)[C@H](CCCCNC(C)=O)NC(=O)[C@H](CCCCNC(C)=O)NC(=O)[C@H](CCCCNC(C)=O)NC(=O)[C@H]([C@@H](C)CC)NC(=O)[C@H](Cc3ccc(O)cc3)NC(=O)[C@H](Cc3ccc(O)cc3)NC(=O)[C@H](CSSC[C@@H](C(N)=O)NC(=O)CNC(=O)[C@H](CC(C)C)NC(=O)[C@H](CCCCN)NC(=O)[C@H](CC(=O)O)NC(=O)[C@H](CC(C)C)NC(=O)[C@H]([C@@H](C)CC)NC(=O)[C@H](CCC(=O)O)NC(=O)[C@H](CCC(=O)O)NC(=O)[C@H]([C@@H](C)CC)NC2=O)NC1=O [Compound C216]	31.4 min
CC[C@H](C)[C@@H]1NC(=O)[C@H](CC(=O)O)NC(=O)CNC(=O)CNC(=O)[C@H](CCCNC(N)=O)NC(=O)[C@H](CC(C)C)NC(=O)[C@H](CCCNC(N)=O)NC(=O)[C@H](CCCCNC(C)=O)NC(=O)[C@H](CC(C)C)NC(=O)[C@H](C)NC(=O)[C@H]([C@@H](C)O)NC(=O)[C@H](Cc2ccccc2)NC(=O)[C@H](Cc2ccccc2)NC(=O)[C@H](CCC(=O)O)NC(=O)[C@H](CCC(=O)O)NC(=O)[C@H](CC(=O)O)NC(=O)[C@H](Cc2ccc(O)cc2)NC(=O)[C@H](CCC(=O)O)NC(=O)[C@@H](NC(=O)CCOCCOCCOCCOCCNC(=O)CN2CCN(CC(=O)O)CCN(CC(=O)O)CCN(CC(=O)O)CC2)CSSC[C@@H]2NC(=O)[C@H](CC(C)C)NC(=O)[C@H](CCCCN)NC(=O)[C@@H]3CCCN3C(=O)[C@H](C(C)C)NC(=O)[C@H](CCCCN)NC(=O)[C@H](CCCCN)NC(=O)[C@H](Cc3ccccc3)NC(=O)[C@H](CCCCN)NC(=O)[C@H](CCCCN)NC(=O)[C@H](CCCCN)NC(=O)[C@H]([C@@H](C)CC)NC(=O)[C@H](Cc3ccc(O)cc3)NC(=O)[C@H](Cc3ccc(O)cc3)NC(=O)[C@H](CSSC[C@@H](C(N)=O)NC(=O)CNC(=O)[C@H](CC(C)C)NC(=O)[C@H](CCCCNC(C)=O)NC(=O)[C@H](CC(=O)O)NC(=O)[C@H](CC(C)C)NC(=O)[C@H]([C@@H](C)CC)NC(=O)[C@H](CCC(=O)O)NC(=O)[C@H](CCC(=O)O)NC(=O)[C@H]([C@@H](C)CC)NC2=O)NC1=O [Compound C217]	31.4 min

— patent US12427212B2, “Nectin-4 binding miniproteins, conjugates and uses thereof” (Aktis Oncology, Inc., priority 2023, dated 2025)
